# From the supplement of paper PMC8728848
# Some of the results follow.
# B1: PX9961K-bvu-480-28-480 (Bacteroides vulgatus) (protein)
# chain: NKIPTTMAFRTVTDVDNAVNGLYDLMSGSGYYGAAMFAYGDMKGDDMQSSEESGVCNTCYMFNHRPNSLNAGSLWGRPFYILREAWNILNAIAEGKIESGDEKKLNALKGETMAVIALCQFDLTRCFGYPYTKDKGASLGAPLIDHLVGTYENPPRSTVAQAYDFIIETLEEAVTLMSEEKNNGRMNKYAARALLARIYLYHDDNRKAFDLADQLIKDADTSGSYALYPHEKYVAAWSVEAKFGSESFFEIANSVDDTPGRDSWGYLLNWYGYQKGFVTQKYAEQMLADPGDVRGHLLEENKYAGKTVWWLYKLRGTDLKTAPLECNNVVLRLSEVYLIAAEAGCKLGGDAAVQGLGYLNEIVKRGNPDNEVTMADYTLDRVLDERSKELVGEGHRFFDLLRNGKTIVRKGGYHLPSVDEEVDWDFYKCVLPIPEDQFIFSPEMEQNPGYPKN
# Legend:
# Assay in all cases: glycan array binding signal (z-score within array); higher = stronger binding
# Settings in all cases: glycan notation: IUPAC condensed, linker removed
# [1] = target: Gal(b1-4)GlcNAc(b1-3)Gal(b1-4)GlcNAc(b1-6)[Gal(b1-3)]GalNAc
# Outline: (§1)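 The binding signal is a Z-score computed within each array and averaged over linkers. Arrays of the same protein sequence at different concentrations or buffers were also averaged together. Data originate from 3228 arrays in the Consortium for Functional Glycomics database, kept only where the protein sequence was available.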
# [2] = target: Gal(b1-4)GlcNAc(b1-3)Gal(b1-4)[Fuc(a1-3)]GlcNAc(b1-3)Gal(b1-4)[Fuc(a1-3)]GlcNAc
# Outline: as §1
# [3] = target: Gal(b1-4)GlcNAc(b1-3)GalNAc
# Outline: as §1
# [4] = target: Gal(b1-4)GlcNAc(b1-3)[Fuc(a1-3)GlcNAc(b1-6)]Gal(b1-4)Glc
# Outline: as §1
# [5] = target: Gal(b1-4)GlcNAc(b1-3)[Gal(b1-4)GlcNAc(b1-6)]Gal(b1-4)GlcNAc
# Outline: as §1
# [6] = target: Gal(b1-4)GlcNAc(b1-3)[GlcNAc(b1-6)]Gal(b1-4)GlcNAc
# Outline: as §1
# [7] = target: Gal(b1-4)GlcNAc(b1-6)Gal(b1-4)GlcNAc
# Outline: as §1
# [8] = target: Gal(b1-4)GlcNAc(b1-6)GalNAc
# Outline: as §1
# [9] = target: Gal(b1-4)GlcNAc(b1-6)[Gal(b1-3)]GalNAc
# Outline: as §1
# [10] = target: Gal(b1-4)GlcNAc(b1-6)[Gal(b1-4)GlcNAc(b1-3)]GalNAc
# Outline: as §1
# Gal(b1-4)GlcNAc6P = target: Gal(b1-4)GlcNAc6P
# Outline: as §1
# Gal(b1-6)Gal = target: Gal(b1-6)Gal
# Outline: as §1
# Gal3S(b1-3)GalNAc = target: Gal3S(b1-3)GalNAc
# Outline: as §1
# Gal3S(b1-3)GlcNAc = target: Gal3S(b1-3)GlcNAc
# Outline: as §1
# [11] = target: Gal3S(b1-3)[Fuc(a1-4)]GlcNAc
# Outline: as §1
# Gal3S(b1-4)Glc = target: Gal3S(b1-4)Glc
# Outline: as §1
# Gal3S(b1-4)Glc6S = target: Gal3S(b1-4)Glc6S
# Outline: as §1
# Gal3S(b1-4)GlcNAc = target: Gal3S(b1-4)GlcNAc
# Outline: as §1
# [12] = target: Gal3S(b1-4)[Fuc(a1-3)]Glc6S
# Outline: as §1
# [13] = target: Gal3S(b1-4)[Fuc(a1-3)]GlcNAc
# Outline: as §1
# [14] = target: Gal3S(b1-4)[Fuc(a1-3)]GlcNAc6S
# Outline: as §1
# Gal3S4S(b1-4)GlcNAc = target: Gal3S4S(b1-4)GlcNAc
# Outline: as §1
# Gal3S6S(b1-4)GlcNAc = target: Gal3S6S(b1-4)GlcNAc
# Outline: as §1
# Gal3S6S(b1-4)GlcNAc6S = target: Gal3S6S(b1-4)GlcNAc6S
# Outline: as §1
# Gal4S(b1-4)GlcNAc = target: Gal4S(b1-4)GlcNAc
# Outline: as §1
# Gal4S6S(b1-4)GlcNAc = target: Gal4S6S(b1-4)GlcNAc
# Outline: as §1
# Gal6P(b1-4)GlcNAc = target: Gal6P(b1-4)GlcNAc
# Outline: as §1
# Gal6S(b1-3)GlcNAc = target: Gal6S(b1-3)GlcNAc
# Outline: as §1
# Gal6S(b1-3)GlcNAc6S = target: Gal6S(b1-3)GlcNAc6S
# Outline: as §1
# Gal6S(b1-4)Glc = target: Gal6S(b1-4)Glc
# Outline: as §1
# Gal6S(b1-4)Glc6S = target: Gal6S(b1-4)Glc6S
# Outline: as §1
# Gal6S(b1-4)GlcNAc = target: Gal6S(b1-4)GlcNAc
# Outline: as §1
# Gal6S(b1-4)GlcNAc6S = target: Gal6S(b1-4)GlcNAc6S
# Outline: as §1
# GalNAc(a1-3)Gal = target: GalNAc(a1-3)Gal
# Outline: as §1
# GalNAc(a1-3)GalNAc = target: GalNAc(a1-3)GalNAc
# Outline: as §1
# [15] = target: GalNAc(a1-3)GalNAc(b1-3)Gal(a1-4)Gal(b1-4)Glc
# Outline: as §1
# [16] = target: GalNAc(a1-3)GalNAc(b1-3)Gal(a1-4)Gal(b1-4)GlcNAc
# Outline: as §1
binder,measurement,setting,value
B1,glycan array binding signal (z-score),[1],-0.359
same,glycan array binding signal (z-score),[2],-0.616
same,glycan array binding signal (z-score),[3],-0.302
same,glycan array binding signal (z-score),[4],0.569
same,glycan array binding signal (z-score),[5],0.172
same,glycan array binding signal (z-score),[6],-0.506
same,glycan array binding signal (z-score),[7],1.02
same,glycan array binding signal (z-score),[8],-0.045
same,glycan array binding signal (z-score),[9],-0.512
same,glycan array binding signal (z-score),[10],0.145
same,glycan array binding signal (z-score),Gal(b1-4)GlcNAc6P,-0.641
same,glycan array binding signal (z-score),Gal(b1-6)Gal,-0.106
same,glycan array binding signal (z-score),Gal3S(b1-3)GalNAc,-0.743
same,glycan array binding signal (z-score),Gal3S(b1-3)GlcNAc,0.009
same,glycan array binding signal (z-score),[11],-0.609
same,glycan array binding signal (z-score),Gal3S(b1-4)Glc,0.787
same,glycan array binding signal (z-score),Gal3S(b1-4)Glc6S,0.273
same,glycan array binding signal (z-score),Gal3S(b1-4)GlcNAc,0.927
same,glycan array binding signal (z-score),[12],-0.512
same,glycan array binding signal (z-score),[13],0.835
same,glycan array binding signal (z-score),[14],0.812
same,glycan array binding signal (z-score),Gal3S4S(b1-4)GlcNAc,0.316
same,glycan array binding signal (z-score),Gal3S6S(b1-4)GlcNAc,0.512
same,glycan array binding signal (z-score),Gal3S6S(b1-4)GlcNAc6S,1.05
same,glycan array binding signal (z-score),Gal4S(b1-4)GlcNAc,0.389
same,glycan array binding signal (z-score),Gal4S6S(b1-4)GlcNAc,-0.447
same,glycan array binding signal (z-score),Gal6P(b1-4)GlcNAc,0.088
same,glycan array binding signal (z-score),Gal6S(b1-3)GlcNAc,0.36
same,glycan array binding signal (z-score),Gal6S(b1-3)GlcNAc6S,1.43
same,glycan array binding signal (z-score),Gal6S(b1-4)Glc,0.467
same,glycan array binding signal (z-score),Gal6S(b1-4)Glc6S,-0.128
same,glycan array binding signal (z-score),Gal6S(b1-4)GlcNAc,-0.106
same,glycan array binding signal (z-score),Gal6S(b1-4)GlcNAc6S,-0.201
same,glycan array binding signal (z-score),GalNAc(a1-3)Gal,0.087
same,glycan array binding signal (z-score),GalNAc(a1-3)GalNAc,-0.228
same,glycan array binding signal (z-score),[15],-0.347
same,glycan array binding signal (z-score),[16],0.347

# Nothing new here: an excerpt of the list.
binder,measurement,setting,value
B1,glycan array binding signal (z-score),[4],0.569
same,glycan array binding signal (z-score),[5],0.172
